# Measurements reported in PubChem BioAssay AID1458 (National Center for Advancing Translational Sciences (NCATS), 2008).
# Screen size: about 210,000 compounds; about 5,900 (2.8%) were called active. Not shown: some 5% with an inconclusive outcome. Calls follow the shape of the dose curve; as a rule, active = well fitted activation curve with a large enough effect; inconclusive = small, poorly fitted or top-dose-only effect; inactive = no such curve, though single readings can be large or run the other way. The list shows a part of the results, in another mix than the full data. Entries without a call were filed so in the source.
# Assay: qHTS Assay for Enhancers of SMN2 Splice Variant Expression; also: nearly all actives have a fitted effect of over 55% in size; as to activity change, positive = activation: % of control where 0% means no effect
# Conditions: HEK293 SMN2-luciferase splicing reporter, luminescence, 30-36 h; activity change, positive = activation: at 46.1 µM (top of the series) unless noted
# In short: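 HEK293 cells carry an SMN2 minigene-luciferase reporter in which exon 7 inclusion puts luciferase in frame. Cells were seeded at 2000 cells/well, attached for 10-12 hours, then exposed to compounds for 30-36 hours at 37C before ONE-Glo luminescence.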
# Potency is read from the fitted curve at half-maximal effect.
Compound,Potency,"activity change, positive = activation"
Cc1ccc2nc3sc(C(=O)NCc4ccco4)c(N)c3cc2c1,active: 4.47 µM,
CCOC(=O)c1cnn2c(C(F)(F)F)cc(-c3cn(C)nc3C)nc12,,34.6%
CC(C)CCOc1ccc(C(=O)O)cc1,,32%
CCCNC(=O)C(=O)Nc1ccc(N(C)C)cc1,active: 11.2 µM,
COC(=O)[C@@]1(Cc2ccc(F)cc2)[C@H]2c3cc(C(=O)N(C)C)n(Cc4ccccc4)c3C[C@H]2CN1C(=O)c1ccccc1,inactive,
Cc1ccc(-c2nc(C3CCN(S(=O)(=O)c4ccc(C(F)(F)F)cc4)CC3)no2)cc1,,78.3%
O=C(CCS(=O)(=O)c1ccc(Br)cc1)NCc1cccs1,,37.3%
Oc1oc(-c2ccco2)nc1C=Nc1ccccc1,,32.1%
CC(=O)c1cnc2cc(-c3ccc(Cl)cc3)nn2c1C,,101%
Cc1c(CCO)c(=O)[nH]n1S(=O)(=O)c1ccccc1,,33.6%
O=C(COC(=O)/C=C/c1cccs1)Nc1ccc2ccccc2c1,,-27.9%
CCOc1ccc(N/C(SCc2cccc([N+](=O)[O-])c2)=C(/C#N)C(N)=O)cc1,,-7.14%
CN(CCNC(=O)C1CC(=O)N(c2ccc(F)c(Cl)c2)C1)Cc1ccccc1 (stereo not drawn),,32.8%
Cn1c(=O)oc2cc(S(=O)(=O)Nc3ccccc3O)ccc21,,28.1%
Cc1cc(NC(=O)c2ccc(F)cc2F)n(-c2nc3ccccc3[nH]2)n1,,inactive: -28.5%
Oc1ccc(-c2csc(Nc3cccnc3)n2)cc1,,19.9%
COc1ccc(CCNC(=O)c2ccc(-c3ccc([N+](=O)[O-])cc3)o2)cc1OC,,-78.7%
Cc1ccc(Nc2nc3ccccc3s2)c(C)c1,active: 2.51 µM,
COc1cc(C)ccc1OCCOc1cc(C)ccc1Cl,,-43%
O=C(Nc1ccc2c(c1)OCCO2)NC12CC3CC(CC(C3)C1)C2,active: 22.4 µM,
CCCCN(C)C(=O)CCC(=O)Nc1ccc2nc(N3CCOCC3)cc(C)c2c1,active: 20 µM,
Cc1ccc(O)c(-c2cc(-c3ccccc3F)[nH]n2)c1,active: 11.2 µM,
CCc1ccc(-n2c(SCc3c(C)noc3C)nnc2-c2ccncc2)cc1,,27.1%
COc1cccc(C(=O)Cn2c(Br)nc3c2c(=O)n(C)c(=O)n3C)c1,,inactive: -35.9%
COC(=O)c1ccc(NC(=O)CCN2CCN(CCC(=O)Nc3ccc(C(=O)OC)cc3)CC2)cc1,,-82.1%
CCN1CCN(C(=O)c2ccc(CN(c3ccccc3)S(=O)(=O)c3ccccc3)cc2)CC1,,-36.2%

Compound,Potency,"activity change, positive = activation"
O=C(Nc1nc2ccccc2c2nc3ccccc3n12)c1ccc(F)cc1,,inactive: -21.6%
O=C(CSc1nc2cc(C(F)(F)F)ccc2n1Cc1ccccc1)NC1CCS(=O)(=O)C1 (stereo not drawn),,-32.8%
CC(OCc1ccccc1)C(NC(=O)OC(C)(C)C)C(=O)NCC1CCCO1 (stereo not drawn),,33%
CC(C)(C)NC(=O)CN(C(=O)CNS(=O)(=O)c1ccccc1)c1ccc2c(c1)OCCO2,,32.5%
Cc1ccc(/C(N)=N/OC(=O)c2ccc3c(c2)OCO3)cc1,active: 12.6 µM,
CCOC(=O)N/N=C/c1c(C)nn(-c2cccc(C(F)(F)F)c2)c1Cl,,inactive: -66.2%
O=C(c1ccc(F)cc1)N1CCC(N2CCCCCC2)CC1,,35.6%
Cc1ccc(S(=O)(=O)c2c(O)cc(C)c(NS(=O)(=O)c3ccc(Br)cc3)c2C)cc1,,inactive: -37.6%
CC(Sc1nc(N)cc(=O)[nH]1)C(=O)Nc1sc2c(c1C#N)CCCC2 (stereo not drawn),,inactive: -61.2%
O=C(NC(=S)Nc1ccccn1)c1ccc([N+](=O)[O-])cc1,active: 2.82 µM,
O=C(c1ccc2c(c1)N(Cc1ccccc1)C(=O)c1ccccc1S2)N1CCCC1,,-52.5%
CCOC(=O)c1snc(C(=O)NC2CCCCC2)c1N,,158%
O=C1CC(O)(C(F)(F)F)Oc2c1ccc1ccccc21 (stereo not drawn),,39.6%
CCN(CC)c1ccc(/C=c2\sc3nc4ccccc4n3c2=O)c(O)c1,,inactive: -46%
COCn1c(COc2ccc3ccccc3c2)nc2ccccc21,active: 11.2 µM,
Nc1nc(CSC(=S)N2CCN(c3ccccc3)CC2)nc(Nc2ccc(F)cc2)n1,,-36.5%
Cc1onc(-c2ccccc2)c1-c1n[nH]c(=S)n1-c1ccc(C(=O)O)cc1,,30.6%
Cc1cccc(N2CCN(C(=O)C3CCN(C(=O)c4cc5sccc5n4C)CC3)CC2C)c1 (stereo not drawn),,inactive: -46.7%
Cc1nn2c(c1-c1ccccc1)NC1=C(C(=O)CCC1)C2c1ccccc1 (stereo not drawn),,17.7%
O=C(/C=C/c1ccccc1[N+](=O)[O-])Nc1cccnc1,active: 14.1 µM,
Oc1ccc(Br)cc1C=Nc1cccn2cc(-c3ccccc3)nc12,,164%
Cn1c(=O)c2c(nc(N/N=C/c3cccs3)n2Cc2ccccc2)n(C)c1=O,,inactive: -55.1%
Nc1ccc(SCCN2C(=O)c3ccccc3C2=O)cc1,,32%
Cc1cccc(N2CCN(C(=O)/C=C/c3cccs3)CC2)c1C,,-42.8%
COc1ccc(-n2c(C)cc(C(=O)CN3C(=O)C(=O)N(Cc4ccccc4)C3=O)c2C)cc1,,-55.7%
O=C(Nc1cccnc1Cl)c1noc2c1CCc1ccccc1-2,,102%

Compound,Potency,"activity change, positive = activation"
COc1cccc(-c2cc(C(=O)NCCCn3ccnc3)no2)c1,,40%
CC(C)CNc1cc(Cl)c(S(=O)(=O)NCC(C)C)cc1C(=O)O,,30.4%
CCOC(=O)N/N=C/c1c(C)nn(-c2ccccc2Cl)c1Cl,active: 12.6 µM,
Cc1ccc(Cn2nc(C)c(NC(=O)c3noc4c3CCCCC4)c2C)cc1,,inactive: -32.6%
CC[n+]1c(/C=C2\Sc3ccccc3N2C)ccc2cccc(C)c21,,inactive: -86.5%
OC1CCCN(Cc2cccc3ccccc23)C1 (stereo not drawn),,36%
Cc1cc(/C=C2\SC(=Nc3ccc(F)cc3)NC2=O)c(C)n1-c1ccc(S(N)(=O)=O)cc1,,11%
Nc1nonc1NC(=O)CSc1ncccc1C(=O)O,,35.9%
N#CC1=C(N)C2=C(N3CCCCC3)CCCC2C1(C#N)C#N (stereo not drawn),,43.9%
Cc1ccc(C)c(CN2C(=O)c3ccccc3S(=O)c3ccc(C(=O)N4CCCCC4)cc32)c1 (stereo not drawn),,inactive: -30.6%
COc1ccc(CCN2C(=O)CC(N3CCN(c4ccccn4)CC3)C2=O)cc1OC (stereo not drawn),,51.8%
O=C(CSc1ccsc1[N+](=O)[O-])NCCc1ccccc1,,20.6%
COc1ccccc1NC(=O)N1C2CCCC1CC(NC(=O)c1ccccc1)C2 (stereo not drawn),,inactive: -32.6%
Cc1ccc(NC(=O)c2cc3c(s2)CCCC3)cc1S(=O)(=O)Nc1ccccc1Cl,,inactive: -60.2%
O=C(/C=C/c1c(F)cccc1Cl)Nc1ccncc1,,inactive: -22.6%
CCc1ccc(O)c(N=Cc2ccccc2O)c1,,44.5%
Cn1c(=O)n(Cc2ccccc2F)c(=O)c2c1nc1n2CCN1Cc1ccco1,,inactive: -48.1%
O=c1c2c3c(sc2n(Cc2ccc(F)cc2Cl)c(=O)n1-c1ccc(Cl)cc1)CCC3,,31.4%
COc1ccccc1NC(=S)N(Cc1ccc(C)cc1)Cc1ccccn1,,-59.9%
Cc1ccc(CSc2oc(-c3cccs3)nc2S(=O)(=O)c2ccc(C)cc2)cc1,,49.9%
COC(=O)c1ccc(COc2cc(O)c3c(c2)OC(C)(C)CC3=O)cc1,,inactive: -49.7%
Cc1c2oc3c(C)ccc(C(=O)NC4C(=O)NC(C(C)C)C(=O)N5CCCC5C(=O)N(C)CC(=O)N(C)C(C(C)C)C(=O)OC4C)c3nc-2c(C(=O)NC2C(=O)NC(C(C)C)C(=O)N3CCCC3C(=O)N(C)CC(=O)N(C)C(C(C)C)C(=O)OC2C)c(N)c1=O (stereo not drawn),,inactive: -95.4%
O=C(COC(=O)c1c2c(nc3ccccc13)CCCC2)Nc1ccc2c(c1)OCO2,,inactive: -52.2%
Cc1ccc(Nc2nc3ccccc3n3nnnc23)cc1,,33.3%
Cc1cc(=O)[nH]c(SCC(=O)Nc2ccc(S(=O)(=O)N3CCCCC3)cc2)n1,,43.4%
COC(=O)c1ccccc1NC(=O)NCc1cccnc1,,24.9%

Compound,Potency,"activity change, positive = activation"
COc1ccc(-c2nnc(SCC(=O)c3[nH]c(C)c(C(C)=O)c3C)o2)cc1,,-58.5%
CCOc1ccc(N(C)S(=O)(=O)c2ccc3[nH]cc(C(=O)NCCOC)c(=O)c3c2)cc1,,-16.5%
Cc1c(-c2ccccc2)oc2c(C(=O)N3CCN(c4ccc([N+](=O)[O-])cc4)CC3)cccc2c1=O,,inactive: -31.5%
O=C(COC(=O)c1ccccc1Br)Nc1ccccc1F,,32.9%
COc1cccc(N2CCN(c3ncnc4c3cnn4-c3ccc(C)cc3C)CC2)c1,,inactive: -90.2%
Cc1nc2ccccc2n1CC(=O)N/N=C\C=C\c1ccccc1,,-40.2%
CCOC(=O)COc1ccc(S(=O)(=O)N2CCN(C(=O)OCC)CC2)cc1,,45.1%
CCOC(=O)C(CCCOc1ccccc1)C(=O)OCC,,29%
CCOC(=O)CCc1c(C)c(C#N)c2[nH]c3ccccc3n2c1=O,,-36.8%
N#C/C(=C\c1ccco1)c1nc2ccccc2s1,active: 11.2 µM,
Nc1nc(-c2ccc(Cl)cc2)nn1C(=O)c1cccnc1,,36.1%
Cc1ccc(NC(=S)NNC(=O)c2c(Cl)c(C)nn2C)cc1,,-34.5%
N#CC1CC(c2ccccc2)=NN1c1ccccc1[N+](=O)[O-] (stereo not drawn),active: 22.4 µM,
c1ccc(OCc2nc3ccccc3[nH]2)cc1,active: 12.6 µM,
O=c1[nH]c(SCCOc2cccc3ccccc23)nc2ccccc12,,230%
CCC(=O)NC(c1ccccc1OC)c1ccc2cccnc2c1O (stereo not drawn),,inactive: -109%
Cc1ccc2nc(-c3ccccc3)cc(C(=O)NCCCn3ccnc3)c2c1,,-11.2%
CC(=O)NCCc1nc2cc(NC(=O)c3cccs3)ccc2n1C,,-0.418%
CCOc1ccc(NC(=O)c2ccc(CC)s2)c([N+](=O)[O-])c1,,29.9%
COc1ccc2c(c1)-c1nc(NC(=O)c3ccco3)sc1CC2,,47%
Cc1[nH]n(-c2ccccc2)c(=O)c1C1(C(F)(F)F)C(=O)N(c2ccc(F)cc2)C2=C1C(=O)CC(C)(C)C2 (stereo not drawn),,49.2%
CCn1c(SCC(=O)NCc2ccco2)nnc1-c1cccs1,,34.1%
Cn1c(=O)n(CC(=O)O)c(=O)c2c1nc1n2CCS1,,47.5%
CC(C)N1C/C(=C/c2ccsc2)C(=O)/C(=C/c2ccsc2)C1,,inactive: -77.7%
CSc1nsc(NC(=O)Cc2ccccc2)n1,,-65.3%
